Measured values taken from PubChem BioAssay AID2685 (National Center for Advancing Translational Sciences (NCATS), 2010).
Some of the results follow. The main result of the screen is listed elsewhere. These columns were measured beside it and carry no call. The list favours compounds with an active or inconclusive main result. The note in brackets gives the kind of curve behind each potency; many fits are weak.

Assay: qHTS Assay for Lipid Storage Modulators in Drosophila S3 Cells;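 on cell number change: cells counted by Cell Tracker Red CMTPX staining in the red channel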
Settings: BODIPY lipid droplet fluorescence, 18-24 h; for cell number change: measured here: cell count max response, cells fed with added oleic acid
In short: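 Drosophila S3 cells got compounds at several concentrations plus oleic acid (400 uM solution). Laser-scanning cytometry with 488 nm excitation read lipid droplets at 500-530 nm and cells at 575-640 nm. Percent activity was relative to 20 uM Triacsin C.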

[1] = measured here: cell number channel AC50, cells fed with added oleic acid
[2] = measured here: lipid fluorescence (Fed channel) AC50, cells fed with added oleic acid

With `Cc1ccc(Nc2nc(N)nc(CSc3nnc(C)s3)n2)cc1` the cell number change was 37.4%, the AC50 [1] was 0.103 µM [rising, full curve, poor fit] and the AC50 [2] was 5.8 µM [rising, partial curve, poor fit].

In the case of `Cc1cccc2c(N)c3c(nc12)CCCC3` (tested in a mixture with another compound), the cell number change was -42.2%, the AC50 [1] was 16.4 µM [falling, single point] and the AC50 [2] was 29.1 µM [falling, single point].

In the case of `O=C(NCc1ccc(F)c(F)c1)C1CCC(=O)N(CC2CCCCC2)C1` (stereo not drawn), the cell number change was 33.7%, the AC50 [1] was 9.2 µM [rising, partial curve, poor fit] and the AC50 [2] was 29.1 µM [rising, single point].

For `O=C(NC(=Nc1ccccc1)N1CCOCC1)Nc1ccccc1`, the cell number change was -24.9%, the AC50 [1] was 0.259 µM [falling, full curve, poor fit] and the AC50 [2] was 0.58 µM [falling, full curve, poor fit].

With `COc1cc(C(=O)Nc2ccccc2C(=O)Nc2ccccn2)cc(OC)c1OC` the cell number change was -20.6% and the AC50 [2] was 3.66 µM [rising, single point].

With `CCOC(=O)[C@@H]1[C@H]2COc3cc(OC)ccc3[C@H]2N2C(=O)N(c3ccc(F)cc3)C(=O)[C@@]12C` the cell number change was 35.3%, the AC50 [1] was 2.59 µM [rising, full curve] and the AC50 [2] was 0.164 µM [rising, full curve, poor fit].

For `COc1ccc(C(=O)NC2CCSc3ccccc32)cc1F` (stereo not drawn), the cell number change was 27% and the AC50 [2] was 29.1 µM [falling, single point].

In the case of `CN(C(=O)c1ccc(Br)cc1)C1CCS(=O)(=O)C1` (stereo not drawn), the cell number change was -41.5% and the AC50 [1] was 2.06 µM [falling, full curve].

With `Cc1ccccc1-c1nc(CS(=O)(=O)CC(=O)NCc2ccc(F)cc2)c(C)o1` the cell number change was 8.07%.

With `Cc1cc(C)c(S(=O)(=O)N(C)CC(=O)NCc2ccccn2)c(C)c1` the cell number change was 34.2%.

In the case of `Cc1ccccc1NC(=O)Cn1cnc2c(oc3nc4c(cc32)CCCC4)c1=O`, the cell number change was -15.3% and the AC50 [2] was 18.4 µM [rising, partial curve].

In the case of `O=C(O)CCC(=O)c1cccc2ccccc12`, the cell number change was 18.4%, the AC50 [1] was 0.164 µM [rising, full curve, poor fit] and the AC50 [2] was 0.116 µM [falling, full curve, poor fit].

For `COc1ccccc1NC(=O)c1sc2ncn(Cc3cccc4ccccc34)c(=O)c2c1C`, the cell number change was 11% and the AC50 [2] was 2.91 µM [rising, full curve].

For `Cc1[nH]n(-c2ccccc2)c(=O)c1/C=N/NC(=O)COc1ccccc1[N+](=O)[O-]`, the cell number change was -16.9%, the AC50 [1] was 3.66 µM [falling, single point] and the AC50 [2] was 0.206 µM [rising, full curve, poor fit].

In the case of `O=C(Nc1nc2ccccc2[nH]1)c1cccc(Br)c1`, the cell number change was 10.1% and the AC50 [2] was 6.51 µM [rising, single point].

In the case of `O=C(COc1cccc(Br)c1)N/N=C/C(=O)c1ccccc1`, the cell number change was -42.3% and the AC50 [1] was 29.1 µM [falling, single point].

For `Cc1cccc(-c2onc3ccc(C4(C)OCCO4)cc23)c1`, the AC50 [2] was 11.6 µM [rising, partial curve].

With `COc1ccc(O[C@H]2C=C[C@@H](c3ccccc3)O[C@@H]2COC(=O)CCC(C)=NO[C@@H]2O[C@H](COC(C)=O)[C@@H](OC(C)=O)[C@H](OC(C)=O)[C@H]2OC(C)=O)cc1` the cell number change was -13.2% and the AC50 [2] was 6.51 µM [rising, full curve].

With `C[C@]12C(=O)N(c3ccccc3)C(=O)N1[C@@H]1c3ccccc3OC[C@@H]1[C@H]2c1ccccc1` the cell number change was 7.19% and the AC50 [2] was 9.2 µM [rising, partial curve, poor fit].

For `O=C(c1cc(-c2ccc(F)cc2)on1)N1CCCCCC1`, the cell number change was 14% and the AC50 [2] was 0.13 µM [falling, full curve, poor fit].

For `O=C(O)/C=C\C(=O)Nc1ccccc1N1CCN(c2ccccc2)CC1`, the cell number change was -3.87% and the AC50 [2] was 29.1 µM [rising, single point].

In the case of `CSc1ncccc1C(=O)OCc1ccccc1F`, the cell number change was -6.25%, the AC50 [1] was 6.51 µM [falling, single point] and the AC50 [2] was 6.51 µM [falling, single point].

`COc1ccc(NS(=O)(=O)c2ccc(NC(=S)NC(=O)C(C)C)cc2)cc1` gave a cell number change of 3.52%.

With `COC(=O)/C=C/C(=O)Nc1cccc(C(F)(F)F)c1` the cell number change was -16.6%, the AC50 [1] was 0.461 µM [falling, full curve, poor fit] and the AC50 [2] was 1.84 µM [falling, partial curve, poor fit].

With `CCc1cc(C(=O)N2CCN(C(=O)c3ccccc3)CC2)sc1C` the cell number change was -6.83% and the AC50 [2] was 0.00461 µM [rising, full curve, poor fit].

With `O=C(O)CCCn1cc(NC(=O)COc2cc(F)ccc2[N+](=O)[O-])cn1` the cell number change was 0.291% and the AC50 [2] was 18.4 µM [falling, single point].

For `Cc1noc(C)c1C(=O)N1CCN(c2ncccn2)CC1`, the cell number change was -15.1% and the AC50 [2] was 29.1 µM [falling, single point].

With `O=C(OCc1nc2scc(-c3ccccc3)c2c(=O)[nH]1)c1cc(Cl)ccc1[N+](=O)[O-]` the cell number change was 7.17% and the AC50 [2] was 0.92 µM [rising, partial curve].

For `CC(C)NC(=O)[C@H]1N2C(=O)c3ccccc3C2SC1(C)C` (stereo partly drawn), the cell number change was 30.8%, the AC50 [1] was 29.1 µM [rising, partial curve, poor fit] and the AC50 [2] was 29.1 µM [rising, partial curve, poor fit].

Molecule `Cc1ccccc1OCC(=O)N/N=C/c1ccc(N(C)C)cc1` has a cell number change of 34.6%.

For `CC(C)NC(=O)NC(=O)COC(=O)C1CCCN1C(=O)c1cccs1` (stereo not drawn), the cell number change was -0.666% and the AC50 [2] was 1.3 µM [falling, full curve, poor fit].

For `CCOC(=O)c1c(C)[nH]c(C(=O)COC(=O)c2ccncc2)c1C`, the AC50 [1] was 6.51 µM [falling, single point].

With `CCOC(=O)c1sc2ccccc2c1NC(=O)c1coc2ccccc2c1=O` the cell number change was -33.9%, the AC50 [1] was 20.6 µM [falling, single point] and the AC50 [2] was 20.6 µM [falling, single point].

In the case of `Cc1ccc(S(=O)(=O)NCCC(=O)NCCSc2ccc(Br)cc2)cc1`, the cell number change was 32.3%, the AC50 [1] was 5.8 µM [rising, full curve, poor fit] and the AC50 [2] was 8.2 µM [rising, partial curve].

`O=C(c1ccccc1)c1cc2ccccc2o1` gave a cell number change of -1.1%.

With `O=C(NCC(c1ccco1)N1CCc2ccccc2C1)c1ccc(Cl)c([N+](=O)[O-])c1` (stereo not drawn) the AC50 [2] was 6.51 µM [falling, single point].

For `COc1ccc(NS(=O)(=O)c2cc(NC(=O)CC(C)(C)C)ccc2N2CCCC2)cc1`, the cell number change was -12.7% and the AC50 [2] was 0.164 µM [rising, partial curve, poor fit].

With `NS(=O)(=O)c1ccc(CCNC(=O)COC(=O)CN2C(=O)C3CCCCC3C2=O)cc1` (stereo not drawn) the cell number change was -36.8% and the AC50 [2] was 29.1 µM [falling, partial curve, poor fit].

For `O=C1c2ccccc2C(O)N1Cc1ccco1` (stereo not drawn), the cell number change was 8.82% and the AC50 [2] was 2.91 µM [falling, full curve].

In the case of `CC(=O)Nc1ccc(NC(=O)C/C(C)=N/NC(=O)C(=O)Nc2ccc(C)c(Cl)c2)cc1`, the cell number change was 19.9%.

`Cc1ccn2c(-c3csc(NCc4ccco4)n3)c(C)nc2c1` gave a cell number change of -26.2%.

In the case of `COc1ccc2c(CC(=O)N3CCc4ccccc43)coc2c1`, the cell number change was 80.2%, the AC50 [1] was 2.59 µM [rising, partial curve] and the AC50 [2] was 7.31 µM [rising, partial curve].

For `Cn1cc(SCC(=O)Nc2ccc3c(c2)OCO3)c2ccccc21`, the cell number change was -15.8%.

In the case of `Cc1nc(N)sc1C(=O)OCC(C)C`, the cell number change was 104%, the AC50 [1] was 0.82 µM [rising, full curve] and the AC50 [2] was 0.82 µM [rising, full curve].

In the case of `O=C1c2ccccc2-c2c1cccc2C(=O)N1CCCCCC1`, the cell number change was -1.26% and the AC50 [2] was 20.6 µM [falling, partial curve, poor fit].

In the case of `Cc1cc(C)c(NC(=O)c2cccc(NC(=O)c3ccco3)c2)c(C)c1`, the cell number change was -73%, the AC50 [1] was 6.51 µM [falling, partial curve] and the AC50 [2] was 23.1 µM [falling, single point].

With `N/C(=N\OC(=O)CC1CCCCC1)c1ccccc1` the cell number change was -5.8% and the AC50 [2] was 1.84 µM [falling, partial curve, poor fit].

In the case of `CCOc1cc(CNc2ncc(-c3ccc(OC)cc3)n2C)ccc1O`, the cell number change was 16.6%.

In the case of `COc1ccc(N2CCN(C(CNC(=O)C(=O)NCc3ccc4c(c3)OCO4)c3ccco3)CC2)cc1` (stereo not drawn), the cell number change was 33%, the AC50 [1] was 16.4 µM [rising, single point] and the AC50 [2] was 0.517 µM [rising, full curve, poor fit].

For `CCCC(C(=O)NCCC(C)C)N(Cc1ccccc1)C(=O)c1snc(C(N)=O)c1N` (stereo not drawn), the AC50 [2] was 9.2 µM [falling, single point].

With `Cc1cc(C)n(CC(=O)N2CCCC(N3CCN(c4cccc(C(F)(F)F)c4)CC3)C2)n1` (stereo not drawn) the cell number change was 29.9%.

In the case of `COc1ccc(N(CC(=O)Nc2ccccc2OC)S(=O)(=O)c2ccccc2)cc1Cl`, the cell number change was -17.9% and the AC50 [2] was 25.9 µM [falling, single point].

With `O=C1ON=C(c2cccc([N+](=O)[O-])c2)/C1=C/c1ccc(O)cc1` the cell number change was -25.5% and the AC50 [2] was 0.731 µM [falling, single point].

For `CCOc1ccccc1C(=O)OCC(=O)NCCNC(=O)COC(=O)c1ccccc1OCC`, the cell number change was 22.7% and the AC50 [2] was 29.1 µM [falling, single point].

For `Cc1ccc(C)c(S(=O)(=O)N2CCN(C(=O)c3ccc(OCc4c(C)noc4C)cc3)CC2)c1`, the cell number change was -42.3%, the AC50 [1] was 20.6 µM [falling, partial curve] and the AC50 [2] was 7.31 µM [falling, partial curve, poor fit].
